The whole screen tested about 340,000 compounds, of which about 170 (0.05%) were called active. Inconclusive means that the source gave no clear call. Such entries were picked first, then a sample of the others. Calls follow the shape of the dose curve; as a rule, active = well fitted inhibition curve with a large enough effect in the signal ratio, with a control signal flat (not every such curve was filed as active); inconclusive = small, poorly fitted or top-dose-only effect, or effect the other way, or a change in a side signal; inactive = flat fitted curve, though single readings scatter; the % refers to the signal ratio. Where the call is inconclusive, the potency comes from a doubtful curve fit.
assay: qHTS Assay to Find Inhibitors of Chronic Active B-Cell Receptor Signaling; conditions: ABC-DLBCL IkBa-CBG/CBR reporter, luminescence ratio (green luciferase fused to IkBa over red control in TMD8 lymphoma cells), 4 h; activity change, negative = inhibition: at 46.1 µM (top of the series) unless noted;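 as to activity change, negative = inhibition: plate controls were basal doxycycline-induced cells for no effect and cells given 10 µM MG132 for full effect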
In short: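 Compounds up to 46 uM were incubated four hours with TMD8 cells whose green CBG68 luciferase is fused to IkappaBalpha; red CBR luminescence normalised the signal, and concentration-effect curves were fitted to fusion, red and ratio data.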
Potency is read from the fitted curve at half-maximal effect.

With `Cc1nn(C)c(C)c1CN(C)C(=O)c1nn2c(c1Br)NC(c1cccs1)CC2C(F)(F)F` (configuration not stated) as the compound, how does the activity change, negative = inhibition read?
The activity change, negative = inhibition was “inactive”.

With `Cc1ccc(-c2nnc(Oc3ccc(NC(=O)c4ccccc4)cc3)c3ccccc23)cc1` as the compound, how does the activity change, negative = inhibition read?
The activity change, negative = inhibition was inconclusive: -6.85%.

With `CCOC(=O)C(=Cc1ccc(Br)cc1)C(=O)OCC` as the compound, how does the Potency read?
Its Potency is inconclusive: 14.1 µM [rising, single point].

For `CCCN(CCC)C(=O)Nc1ccc(F)cc1F`, which activity change, negative = inhibition is on record?
The activity change, negative = inhibition was inconclusive: 7.82%.

Which Potency does the source give for `Cc1ccc(-c2cc(C(=O)OCC(=O)N(C)C3CCS(=O)(=O)C3)c3ccccc3n2)o1` (configuration not stated) here?
Its Potency is inconclusive: 12.6 µM [falling, partial curve].

Which Potency does the source give for `Cc1ccc(-c2cc(C(=O)NC3CCCCC3)no2)cc1` here?
The Potency was inconclusive: 0.631 µM [falling, full curve, poor fit].

With `CCc1ccccc1N1C(=O)N(Cc2cc(=O)n3ccccc3n2)c2ccccc2S1(=O)=O` as the compound, how does the Potency read?
The Potency was inconclusive: 10 µM [falling, partial curve, poor fit].

Which Potency does the source give for `CCCc1noc2c1C(c1ccoc1)C(C#N)=C(N)N2` (configuration not stated) here?
The Potency was inconclusive: 15.8 µM [cytotoxic, partial curve].

With `CCOc1ccc2oc(C(=O)N(C)CC(=O)Nc3ccc(OCC)c(OCC)c3)c(C)c2c1` as the compound, how does the activity change, negative = inhibition read?
The activity change, negative = inhibition was inconclusive: 2.01%.

For `C[C@@H]1NS(=O)(=O)[C@H]2C[C@@H]3C=C[C@]2(O3)[C@H]1OC(=O)c1ccccc1Br`, which activity change, negative = inhibition is on record?
Its activity change, negative = inhibition is inconclusive: -0.0268%.

With `CC(=O)Nc1ccc(-c2nc3ccccc3c(=O)o2)cc1` as the compound, how does the activity change, negative = inhibition read?
Its activity change, negative = inhibition is inconclusive: -28.1%.

With `CCc1c(C)nc(SCC(=O)N2CCN(c3ccccc3)CC2)[nH]c1=O` as the compound, how does the activity change, negative = inhibition read?
The activity change, negative = inhibition was “inactive”.

With `O=C(O)CC1(CC(=O)Nc2ccc3c(c2)OCCCO3)CCCCC1` as the compound, how does the Potency read?
Its Potency is inconclusive: 35.5 µM [falling, single point].

Which activity change, negative = inhibition does the source give for `CN(C)C(=O)CSc1nnc(-c2ccncc2)n1Cc1ccco1` here?
Its activity change, negative = inhibition is inconclusive: 4.76%.

For `O=C(O)c1ccccc1SC1CC(=O)N(c2ccc3c(c2)OCO3)C1=O` (configuration not stated), which activity change, negative = inhibition is on record?
Its activity change, negative = inhibition is inconclusive: -15.6%.

With `Cn1c(CNc2cccc(C(F)(F)F)c2)n[nH]c1=S` as the compound, how does the activity change, negative = inhibition read?
Its activity change, negative = inhibition is “inactive”.

With `O=[N+]([O-])c1c(NCCCO)cc(Sc2nc3ccccc3s2)c2nonc12` as the compound, how does the Potency read?
The Potency was inconclusive: 12.6 µM [falling, single point].

Which activity change, negative = inhibition does the source give for `N#CC1C=Cc2ccccc2N1C(=O)c1ccccc1` (configuration not stated) here?
Its activity change, negative = inhibition is inconclusive: -1.97%.

With `COc1ccc(CCNS(=O)(=O)c2cccc(C)c2)cc1OC` as the compound, how does the activity change, negative = inhibition read?
The activity change, negative = inhibition was “inactive”.

With `O=C(c1cc(C(=O)c2ccco2)cc(C(=O)c2ccco2)c1)c1ccco1` as the compound, how does the activity change, negative = inhibition read?
The activity change, negative = inhibition was “inactive”.

For `COc1ccccc1OCc1ccc(C(=O)NCc2ccco2)o1`, which activity change, negative = inhibition is on record?
The activity change, negative = inhibition was inconclusive: -9.57%.

With `Clc1cccc(Cl)c1C1Nc2cccc3cccc(c23)N1` as the compound, how does the Potency read?
Its Potency is inconclusive: 3.16 µM [falling, single point].
